# Out of some 360,000 compounds screened, about 7,500 (2.1%) were called active. Inconclusive means that the source gave no clear call. Such entries were picked first, then a sample of the others. The call rests on the fitted dose curve; in most records, active means well fitted inhibition curve with a large enough effect; inconclusive means small, poorly fitted or top-dose-only effect, or effect the other way; inactive means flat fitted curve, though single readings scatter. A potency beside an inconclusive call is a rough fit, not a confirmed value.
# Assay: Nrf2 qHTS screen for inhibitors; further: nearly all actives have a fitted effect of over 60% in size
# Conditions: A549 ARE-Fluc reporter, luciferase luminescence, 18-24 h; activity change, negative = inhibition: at 46 µM (top of the series)
# In short: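 In this cell-based qHTS, ARE-driven firefly luciferase in A549 cells reports Nrf2 activity; the luminescent signal after BugLite lysis is the measured value, with a prior CellTiter-Fluor read for cell health.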
# On the % scale 0 is the no-effect control and ±100 the full control effect; potency means the concentration at half of the fitted maximal effect.
SMILES,Potency,"activity change, negative = inhibition"
COc1ccccc1CNC(=O)c1cccn1-c1nnc(N2CCCC2)s1,"inconclusive: 4.11 µM [activator, full curve, poor fit]",
CCS(=O)(=O)N1Cc2ccccc2CC1C(=O)Nc1ccc(C)cc1 (centres undefined),,inactive: 2.21%
O=C(OCC(=O)N1CCOCC1)c1cccc(S(=O)(=O)Nc2ccc(F)cc2)c1,,inactive: -24%
CCNC(=O)COC(=O)c1ccc(-c2nc3ccccc3s2)s1,"inconclusive: 16.4 µM [activator, partial curve]",
O=C(OCC(=O)N1N=C(c2ccc(Cl)cc2)CC1c1ccco1)c1cccnc1 (centres undefined),"inconclusive: 3.66 µM [activator, full curve, poor fit]",
O=C(Nc1ccccc1)c1cc(-c2ccccc2Cl)no1,"inconclusive: 13 µM [activator, partial curve]",
O=C(Nc1cccc(-c2nc3ncccc3o2)c1)c1ccc(-c2cccc(Cl)c2Cl)o1,active: 5.8 µM,
COc1ccc(NC(=O)/C=C/c2ccc(OC(F)F)cc2)cn1,active: 18.4 µM,
Oc1c(C(Nc2nccs2)c2ccc(C(F)(F)F)cc2)ccc2cccnc12 (centres undefined),active: 4.61 µM,
COc1ccc(N2CCN(C(=O)C3CCCN(S(=O)(=O)c4ccc(F)cc4)C3)CC2)cc1 (centres undefined),"inconclusive: 29.1 µM [falling, single point]",
CN(C)c1ccc(/C=N/Nc2nc3ccccc3o2)cc1,"inconclusive: 1.3 µM [activator, partial curve]",
CCN(CC)S(=O)(=O)c1ccc(N2CCCCC2)c(C(=O)Nc2ccccc2N2CCOCC2)c1,"inconclusive: 23.1 µM [falling, single point]",
CC(C)C[C@@H](NC(=O)C1CCC(CNC(=O)[C@@H]2CCCN2C(=O)OC(C)(C)C)CC1)C(=O)O (some centres undefined),"inconclusive: 29.1 µM [activator, single point]",
COc1ccc(C(=O)NCC(c2cccnc2)N2CCN(c3ccc(F)cc3)CC2)cc1 (centres undefined),"inconclusive: 29.1 µM [falling, single point]",
c1ccc(CSc2ncn(-c3ccccc3)n2)cc1,"inconclusive: 9.2 µM [activator, partial curve]",
C=CCSc1nnc2nc3c(nn12)c1cc(C)ccc1n3CC=C,,inactive: -19.9%
CCOc1ccc(C(C)=O)cc1N1C(=O)C2C3C=CC(C3=C(C)C)C2C1=O (centres undefined),,inactive: 5.23%
O=C(NCC(c1ccc(Cl)cc1)N1CCCCC1)c1ccc(F)cc1 (centres undefined),,inactive: 7.51%
CCn1c(C)cc(/C=C2\NC(=O)N(CC(=O)Nc3ccc(F)cc3)C2=O)c1C,"inconclusive: 13 µM [activator, partial curve, poor fit]",
COc1ccccc1C(=O)Nc1ccc(C(=O)c2ccccc2)cc1,"inconclusive: 25.9 µM [activator, single point]",
CC(CC(=O)Nc1nncs1)c1ccccc1 (centres undefined),"inconclusive: 1.46 µM [activator, partial curve, poor fit]",
CCc1c(O)nc(SCC(=O)Nc2nc3ccccc3s2)n(C2CCCCC2)c1=O,"inconclusive: 32.6 µM [falling, partial curve, poor fit]",

SMILES,Potency,"activity change, negative = inhibition"
CCCCOc1cccc(C(=O)N(Cc2ccco2)C2CCS(=O)(=O)C2)c1 (centres undefined),"inconclusive: 16.4 µM [falling, single point]",
c1ccc(-c2nn3c(Cn4nnc5ccccc54)nnc3s2)nc1,"inconclusive: 1.64 µM [activator, full curve, poor fit]",
Cc1ccc2[nH]cc(CCNC(=O)/C=C/c3ccco3)c2c1,"inconclusive: 13 µM [falling, partial curve, poor fit]",
Brc1ccc2c(c1)C(C1=NCCN1)c1ccccc1CS2 (centres undefined),"inconclusive: 0.082 µM [falling, full curve, poor fit]",
O=c1c2c3c(sc2nc2n1CCCCC2)C(O)CCC3 (centres undefined),"inconclusive: 8.2 µM [activator, partial curve]",
C[C@]1(C(=O)NCCc2c[nH]c3ccccc23)C=C[C@@H](Cc2ccccc2)N1C(=O)c1ccccc1,"inconclusive: 29.1 µM [falling, single point]",
O=S(=O)(Nc1ccc(Br)cc1)c1cccc2nonc12,"inconclusive: 23.1 µM [falling, partial curve, poor fit]",
O=C(Nc1nccs1)c1ccc2nccnc2c1,"inconclusive: 29.1 µM [activator, single point]",
COc1ccc(NC2CCCN(C(=O)c3cccc(C)n3)C2)cc1OC (centres undefined),"inconclusive: 20.6 µM [falling, partial curve, poor fit]",
N/C(=N\NC(=O)c1sccc1OCc1ccc(Cl)cc1Cl)c1ccccn1,"inconclusive: 29.1 µM [falling, single point]",
Cc1ccc(NC(=O)CN2CCN(Cc3ccccc3)CC2)c(Br)c1,,inactive: 23%
CC(C)C(NC(=O)c1ccccc1)C(=O)OCc1cc([N+](=O)[O-])cc2c1OCOC2 (centres undefined),"inconclusive: 29.1 µM [falling, single point]",
C/C(=N/NC(=O)c1ccc2nc[nH]c2c1)c1cccs1,"inconclusive: 2.06 µM [activator, partial curve, poor fit]",
CCc1ccc(-n2c(=O)c3cccnc3n2CC(=O)NCc2ccc(F)cc2)cc1,"inconclusive: 18.4 µM [activator, partial curve]",
Oc1ccccc1C=Nc1ccccc1-c1nc2ccccc2[nH]1,"inconclusive: 20.6 µM [activator, partial curve]",
COC(=O)c1sc(SC)nc1N,"inconclusive: 29.1 µM [activator, single point]",
Cn1c(=O)c(=O)n(C)c2cc(S(=O)(=O)N3CCN(c4ccccc4F)CC3)ccc21,"inconclusive: 13 µM [falling, partial curve, poor fit]",
COc1cccc(C(=O)Nc2ccc(C(=O)NCC(C)C)cc2)c1,"inconclusive: 20.6 µM [falling, single point]",
Cc1nc2ccc(NC(=O)c3ccc(S(=O)(=O)N(C)C)cc3)cc2s1,"inconclusive: 32.6 µM [falling, partial curve, poor fit]",
O=C(Nc1cccc(C(F)(F)F)c1)c1noc2c1CCc1ccccc1-2,,inactive: 16%
COc1ccc(CNC(=O)/C=C/c2ccccc2[N+](=O)[O-])cc1,,inactive: 0%
CCOC(=O)c1ccc(Nc2cnc3ccccc3n2)cc1,"inconclusive: 7.31 µM [activator, partial curve]",

SMILES,Potency,"activity change, negative = inhibition"
O=C(NCC1CCCO1)c1ccc2nc(N3CCCCC3)sc2c1 (centres undefined),"inconclusive: 1.3 µM [activator, full curve]",
O=C(NCCc1ccc(Cl)cc1)c1cccn1-c1nnc(N2CCCCC2)s1,"inconclusive: 25.9 µM [falling, partial curve, poor fit]",
COc1ccc(C(CNC(=O)COc2ccc(F)cc2Cl)N2CCOCC2)cc1 (centres undefined),"inconclusive: 0.0164 µM [falling, full curve, poor fit]",
CNS(=O)(=O)c1cn(CC(=O)NCc2ccc(N(C)C)cc2)cc1S(=O)(=O)NC,,inactive: 8.09%
COc1ccc([C@H]2CC(=O)C=C(c3cccc(Cl)c3)C2)cc1,"inconclusive: 13 µM [falling, partial curve, poor fit]",
COc1ccc(N2CCN(C(=O)CSCc3nc(-c4ccccc4Cl)oc3C)CC2)cc1,active: 1.84 µM,
CN(C1CCCCC1)S(=O)(=O)c1ccc(C(=O)Nc2sc3c(c2C(N)=O)CC(C)(C)NC3(C)C)cc1,"inconclusive: 6.51 µM [activator, partial curve, poor fit]",
COc1ccc(-c2csc3ncnc(N4CCN(c5ccc(OC)cc5)CC4)c23)cc1,"inconclusive: 23.1 µM [falling, single point]",
O=C(Cc1cccc([N+](=O)[O-])c1)Nc1cccc(C(=O)N2CCCC2)c1,"inconclusive: 25.9 µM [falling, partial curve, poor fit]",
COc1cc2c(cc1NC(=O)CC1SC(N3CCCC3)=NC1=O)oc1ccccc12 (centres undefined),"inconclusive: 20.6 µM [falling, partial curve]",
Cc1cccc(C(=O)N(Cc2nc3ccccc3c(=O)[nH]2)C2CCCC2)c1,"inconclusive: 0.92 µM [falling, full curve, poor fit]",
O=c1cc(CO)oc(CN2CCN(c3cccc(C(F)(F)F)c3)CC2)c1O,"inconclusive: 28.2 µM [falling, single point]",
CCCSc1ccc(C(=O)Nc2ccc(F)cc2F)cn1,"inconclusive: 29.1 µM [activator, single point]",
Cc1ccc(S(=O)(=O)Nc2nc3ccccc3nc2N2CCOCC2)cc1,,inactive: -5.83%
CCOC(=O)c1ccc(N2C(=O)c3n[nH]c(-c4cccs4)c3C2c2ccc(O)c(OC)c2)cc1 (centres undefined),"inconclusive: 29.1 µM [falling, single point]",
CC1=C(C(=O)OC2CCCCCCC2)C(c2ccc(O)cc2)NC(=O)N1 (centres undefined),"inconclusive: 29.1 µM [falling, single point]",
CSCC[C@H](NC(=O)[C@H]1CC[C@H](CNC(=O)[C@@H](N)Cc2ccccc2)CC1)C(=O)O,"inconclusive: 18.4 µM [activator, partial curve, poor fit]",
COc1ccc(C2SCCN2S(=O)(=O)c2ccc(NC(C)=O)cc2)cc1 (centres undefined),"inconclusive: 29.1 µM [falling, single point]",
CCN(C(=O)c1cc2c(s1)-c1c(C)cccc1OC2)c1cc(C)ccc1C,"inconclusive: 18.4 µM [falling, single point]",
CCOc1cc(S(=O)(=O)n2cc(-c3ccc(F)cc3)c(N)n2)cc(OCC)c1OCC,"inconclusive: 25.9 µM [falling, partial curve, poor fit]",

# — PubChem BioAssay AID504444 (National Center for Advancing Translational Sciences (NCATS), 2011)
